Article PMC3164226
These are yes or no findings as the source states them, for the method shown. In cells and extracts the contact can be indirect. Some entries that bind do so weakly or less than the wild type.

Amino acid sequences for entries named in this document (tags omitted). A change or cut given only in a name is not applied to a line headed by its entry. Chains listed by the source or under a name are the forms on record and can include a tag or linker.
(GFP)torA-E171Q (O14656, form named): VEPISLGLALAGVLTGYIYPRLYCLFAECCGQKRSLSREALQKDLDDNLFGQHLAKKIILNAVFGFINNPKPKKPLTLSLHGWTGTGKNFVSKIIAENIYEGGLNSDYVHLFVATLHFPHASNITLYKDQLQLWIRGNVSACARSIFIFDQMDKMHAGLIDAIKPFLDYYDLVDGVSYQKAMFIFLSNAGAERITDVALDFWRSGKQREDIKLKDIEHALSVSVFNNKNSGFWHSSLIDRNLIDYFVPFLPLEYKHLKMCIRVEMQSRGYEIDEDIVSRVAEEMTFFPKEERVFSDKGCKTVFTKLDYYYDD
(GFP)torA-ΔE (O14656, form named): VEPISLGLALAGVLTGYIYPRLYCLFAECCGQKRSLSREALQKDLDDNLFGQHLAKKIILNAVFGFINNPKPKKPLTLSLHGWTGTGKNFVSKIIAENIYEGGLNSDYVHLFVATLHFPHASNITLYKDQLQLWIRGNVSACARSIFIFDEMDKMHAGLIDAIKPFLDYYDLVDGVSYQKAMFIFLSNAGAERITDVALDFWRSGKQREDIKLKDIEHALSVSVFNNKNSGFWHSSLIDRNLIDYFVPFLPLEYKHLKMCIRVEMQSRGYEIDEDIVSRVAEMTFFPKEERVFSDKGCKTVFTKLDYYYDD
Lamina-Associated-Polypeptide 1 (LAP1) (Q921T2-3, form named): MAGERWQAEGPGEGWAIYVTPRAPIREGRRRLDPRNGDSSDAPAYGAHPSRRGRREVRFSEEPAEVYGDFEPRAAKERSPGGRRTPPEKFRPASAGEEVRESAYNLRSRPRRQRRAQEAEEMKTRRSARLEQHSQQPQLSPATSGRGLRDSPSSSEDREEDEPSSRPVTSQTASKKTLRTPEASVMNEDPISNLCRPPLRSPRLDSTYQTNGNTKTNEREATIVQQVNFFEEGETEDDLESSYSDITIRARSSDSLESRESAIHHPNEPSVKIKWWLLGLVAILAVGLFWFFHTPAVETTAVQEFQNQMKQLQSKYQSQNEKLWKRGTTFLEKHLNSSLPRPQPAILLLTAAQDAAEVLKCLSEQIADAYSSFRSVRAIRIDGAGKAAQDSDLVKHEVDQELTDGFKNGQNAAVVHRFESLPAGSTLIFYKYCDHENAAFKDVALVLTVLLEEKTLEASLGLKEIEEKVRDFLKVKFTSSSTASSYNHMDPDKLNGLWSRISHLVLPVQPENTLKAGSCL
UniProt Q8BYU6: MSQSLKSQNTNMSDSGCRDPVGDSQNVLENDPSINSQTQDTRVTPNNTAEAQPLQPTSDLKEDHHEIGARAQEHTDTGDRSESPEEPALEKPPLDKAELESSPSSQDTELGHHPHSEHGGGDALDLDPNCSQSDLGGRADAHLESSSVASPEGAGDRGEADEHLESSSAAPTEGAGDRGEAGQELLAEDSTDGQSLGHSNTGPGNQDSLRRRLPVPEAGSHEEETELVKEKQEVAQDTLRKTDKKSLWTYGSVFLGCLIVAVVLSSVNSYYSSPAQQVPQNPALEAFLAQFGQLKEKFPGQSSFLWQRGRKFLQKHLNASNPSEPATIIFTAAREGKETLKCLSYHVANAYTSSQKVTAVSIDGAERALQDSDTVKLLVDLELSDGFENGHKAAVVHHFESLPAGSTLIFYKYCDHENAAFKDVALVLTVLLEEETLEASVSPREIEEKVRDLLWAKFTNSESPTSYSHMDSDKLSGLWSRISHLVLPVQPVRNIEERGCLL

Legend:
[1] = target: (GFP)torA-E171Q (human) (UniProt O14656); experiment: co-IP; anti-GFP conjugated AminoLink resin, lysates of NIH-3T3 cells stably expressing (GFP)torA; 50 mM imidazole-HCl pH 7.5, 5% glycerol, 0.5% digitonin, 4 mM MgCl2, 50 mM NaCl, 2 mM ATP and 0.5 mM ADP; 2.5 h at 4°C; mild elution with non-reducing Laemmli buffer; Western blot
[2] = target: (GFP)torA-ΔE (human) (UniProt O14656); experiment: as above

binding [1] | binding [2] | Substance
binds | no binding | Lamina-Associated-Polypeptide 1 (LAP1) (from UniProt Q921T2-3 1-520)
binds | no binding | LULL1 (Luminal domain like LAP 1) (from UniProt Q8BYU6 1-502)
